Experimental data from PubChem BioAssay (NCATS).
The inconclusive results got no clear call from the source; some entries with a clear call stand among them for comparison. Where the call is inconclusive, the potency comes from a doubtful curve fit. Calls of active or inactive are those of the source. Calls follow the shape of the dose curve; as a rule, active = well fitted inhibition curve with a large enough effect; inconclusive = small, poorly fitted or top-dose-only effect; inactive = no such curve, though single readings can be large or run the other way.

Target: Aldehyde dehydrogenase 1A1 (Homo sapiens) (UniProt P00352)
Assay: qHTS for Inhibitors of the Aldehyde Dehydrogenase Family (ALDH1A1) Confirmatory screens (AID 2061316); also: nearly all actives have a fitted effect of over 65% in size
Conditions: ALDH inhibition qHTS; activity change, negative = inhibition: at 47.3 µM (top of the series); series mostly up to 47.3 µM
% is scaled to controls: 0 for no effect and ±100 for the full control effect; potency is read from the fitted curve at half-maximal effect.

SMILES | outcome | Potency | activity change, negative = inhibition
COc1ccccc1-c1cc(C(=O)NCc2ccc(C(F)(F)F)cc2)c2cnn(C)c2n1 | inactive | – | –
Brc1ccc(-c2csc(N3CCC(c4nn[nH]n4)CC3)n2)cc1 | – | inconclusive: 22.5 µM [inhibitor, single point] | –
O=C1CCc2cc(S(=O)(=O)Nc3cc(F)cc(Cl)c3)c(F)cc2N1 | inactive | – | –
Cc1cc(=O)oc2c(C=O)c(O)ccc12 | – | active: 8.96 µM | –
COc1ccc(-c2nc3ccccc3s2)cc1 | – | inconclusive: 12.7 µM [inhibitor, partial curve, poor fit] | –
NC(=O)C1CCN(c2nc(-c3ccc(F)cc3)cs2)CC1 | – | inconclusive: 25.2 µM [inhibitor, single point] | –
O=C(Nc1ncc(Cc2ccc(C(F)(F)F)cc2)s1)c1ncc(-c2ccccc2)[nH]1 | – | inconclusive: 22.5 µM [inhibitor, partial curve, poor fit] | –
Nc1ncnc2c1ncn2[C@@H]1O[C@H](CN[S+](=O)([O-])NC(=O)c2cccc(-c3noc(-c4ccccc4F)n3)c2)[C@@H](O)[C@H]1O | – | inconclusive: 14.2 µM [inhibitor, partial curve, poor fit] | –
COc1ccc(C2=Nn3c(nnc3-c3ccccc3O)SC2)cc1 | – | inconclusive: 12.7 µM [inhibitor, partial curve] | –
C=C[C@H]1[C@H](O[C@@H]2O[C@H](CO)[C@@H](O)[C@H](O)[C@H]2O)OC=C(C(=O)OC)[C@H]1CCOC(=O)c1cc(O)c(O)c(O)c1 | – | – | inactive: -8.87% [at 25.5 µM]
CC1(C)CCC2(C(=O)OC3OC(CO)C(O)C(O)C3O)CCC3(C)C(=CCC4C5(C)CCC(O)C(C)(C(=O)O)C5CCC43C)C2C1O (stereo unspecified) | – | – | inactive: -4.33% [at 16 µM]

As entered above:
Under activity change, negative = inhibition, CC1(C)CCC2(C(=O)OC3OC(CO)C(O)C(O)C3O)CCC3(C)C(=CCC4C5(C)CCC(O)C(C)(C(=O)O)C5CCC43C)C2C1O (stereo unspecified) shows inactive: -4.33% [at 16 µM]
Under Potency, COc1ccc(C2=Nn3c(nnc3-c3ccccc3O)SC2)cc1 shows inconclusive: 12.7 µM [inhibitor, partial curve]
